PubChem BioAssay AID504793 – Drosophila RNAi Screening Center | 2011

Screen: 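Knock-downs allowing continued mitosis even though DNA is damaged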 (primary screen)
Cell system: Drosophila S2R+ cells
Reagents: long dsRNA against Drosophila genes, about 0.25 µg dsRNA per well
Duration: 4 days of dsRNA, then 4 hours of drug before read-out
Treatment: doxorubicin 0.5 µM for 4 hours to cause double-strand breaks, in cells also given a low, harmless dose of dsRNA against nbs to sensitise the assay
Measured: 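Mitotic index as the number of phospho-histone H3-positive cells in each well following doxorubicin, given as raw counts without normalisation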
Direction: mitotic cells: higher = more cells in mitosis, weaker G2 arrest
Active means: 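Genes are called active only when high mitotic counts were reproduced with independent dsRNAs and mitosis was checked for delay without damage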
Calls: active = confirmed in follow-up tests; inactive = not confirmed
The screen tested about 23,000 reagents; this is an unselected part of those that have a named target and a result. In the full data, 62 (0.27%) got an active call. 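Calls come from follow-up tests whose scores are not deposited, so confirmed genes may have low counts here; counts are not normalised per plate.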 The raw values are shown without normalisation. Entries without a mark were called inactive. Reagent sequences are not shown.

Nbr (Nibbler) [DRSC03166] — mitotic cells, replicate 1: 5
CG12551 (retired record) [DRSC04857] — mitotic cells, replicate 1: 6
CG12551 (retired record) [DRSC04864] — mitotic cells, replicate 1: 3
CG12551 (retired record) [DRSC25725] — mitotic cells, replicate 1: 2
CG12551 (retired record) [DRSC27579] — mitotic cells, replicate 1: 3
Daao2 (D-amino acid oxidase 2) [DRSC02135] — mitotic cells, replicate 1: 3
TwdlB (TweedleB) [DRSC16050] — mitotic cells, replicate 1: 14
TwdlB (TweedleB) [DRSC25071] — mitotic cells, replicate 1: 3
Tps1 (Trehalose-6-phosphate synthase 1) [DRSC00269] — mitotic cells, replicate 1: 5
Tps1 (Trehalose-6-phosphate synthase 1) [DRSC27331] — mitotic cells, replicate 1: 5
CG10417 [DRSC04846] — mitotic cells, replicate 1: 8
CG10417 [DRSC27173] — mitotic cells, replicate 1: 5
CG15465 [DRSC18048] — mitotic cells, replicate 1: 17
CG15465 [DRSC26250] — mitotic cells, replicate 1: 7
Arl4 (ADP ribosylation factor-like 4) [DRSC17156] — mitotic cells, replicate 1: 9
Mics1 (Mitochondrial morphology and cristae structure 1) [DRSC12537] — mitotic cells, replicate 1: 4
Neto (Neuropilin and tolloid-like) [DRSC18982] — mitotic cells, replicate 1: 11; mitotic cells, replicate 2: 10
Neto (Neuropilin and tolloid-like) [DRSC19503] — mitotic cells, replicate 1: 10
Neto (Neuropilin and tolloid-like) [DRSC19716] — mitotic cells, replicate 1: 22
Neto (Neuropilin and tolloid-like) [DRSC19717] — mitotic cells, replicate 1: 11
CG31251 [DRSC16247] — mitotic cells, replicate 1: 7
CG6983 [DRSC10757] — mitotic cells, replicate 1: 6
meep [DRSC07948] — mitotic cells, replicate 1: 21
meep [DRSC25511] — mitotic cells, replicate 1: 12
CG31462 (retired record) [DRSC14359] — mitotic cells, replicate 1: 1
CG13605 [DRSC14608] — mitotic cells, replicate 1: 7
CG18467 [DRSC06758] — mitotic cells, replicate 1: 7
CG14107 [DRSC10110] — mitotic cells, replicate 1: 5
CG14107 [DRSC25136] — mitotic cells, replicate 1: 5
Hyccin [DRSC06983] — mitotic cells, replicate 1: 5
Prx3 (Peroxiredoxin 3) [DRSC15883] — mitotic cells, replicate 1: 8
Prx3 (Peroxiredoxin 3) [DRSC29107] — mitotic cells, replicate 1: 5
CG1662 [DRSC19754] — mitotic cells, replicate 1: 5
Atac1 (Ada2a-containing complex component 1) [DRSC03155] — mitotic cells, replicate 1: 4
